± gives the standard deviation of the averaged measurements. The list shows a part of the results, in another mix than the full data.
Compound: Nc1ncnc2c1ncn2[C@@H]1O[C@H](COP(=O)(O)OP(=O)(O)OP(=O)(O)O)[C@@H](O)[C@H]1O [adenosine triphosphate]
Assay: NP40-soluble protein abundance relative to vehicle (solubility fold change) (ratio); higher = more soluble protein in presence of ATP
Summary of the method: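 In three independent experiments, Jurkat crude lysate made by Dounce homogenisation was treated for 10 min at room temperature and then 3 min at 37 °C with eight concentrations ranging from 0.1 to 10 mM. It was then solubilised with 0.8% NP40 plus benzonase for 60 min at 4 °C and ultracentrifuged. The supernatant was TMT-labelled for LC-MS/MS, and each value is the fold change against the detergent-processed vehicle for the same replicate, using vsn-normalised intensities.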

Chains of the proteins cited; added tags and fusions are not shown. Lines headed by an entry give the natural chain unless they say otherwise; changes in a name come on top.
UniProt O43819: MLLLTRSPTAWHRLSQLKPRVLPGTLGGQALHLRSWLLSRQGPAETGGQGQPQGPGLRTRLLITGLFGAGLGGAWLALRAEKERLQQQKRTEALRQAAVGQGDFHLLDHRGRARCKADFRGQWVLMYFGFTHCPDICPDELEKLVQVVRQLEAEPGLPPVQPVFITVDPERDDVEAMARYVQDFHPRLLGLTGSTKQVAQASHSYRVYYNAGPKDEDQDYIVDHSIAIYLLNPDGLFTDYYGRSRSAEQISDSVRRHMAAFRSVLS
UniProt O15446, whole entry: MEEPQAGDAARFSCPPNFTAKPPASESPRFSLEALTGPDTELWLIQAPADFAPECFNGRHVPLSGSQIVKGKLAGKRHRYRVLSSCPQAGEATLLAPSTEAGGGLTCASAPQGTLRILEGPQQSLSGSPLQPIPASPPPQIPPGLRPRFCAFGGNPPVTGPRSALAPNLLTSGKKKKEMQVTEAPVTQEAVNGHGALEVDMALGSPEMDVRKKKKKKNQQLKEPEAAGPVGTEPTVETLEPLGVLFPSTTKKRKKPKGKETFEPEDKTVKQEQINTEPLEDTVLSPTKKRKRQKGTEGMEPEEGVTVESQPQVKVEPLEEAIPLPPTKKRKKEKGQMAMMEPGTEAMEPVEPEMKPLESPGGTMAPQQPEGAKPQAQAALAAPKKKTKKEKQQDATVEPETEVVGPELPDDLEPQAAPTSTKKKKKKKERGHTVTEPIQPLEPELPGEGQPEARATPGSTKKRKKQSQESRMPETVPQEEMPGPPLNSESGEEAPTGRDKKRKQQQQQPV
UniProt O43290: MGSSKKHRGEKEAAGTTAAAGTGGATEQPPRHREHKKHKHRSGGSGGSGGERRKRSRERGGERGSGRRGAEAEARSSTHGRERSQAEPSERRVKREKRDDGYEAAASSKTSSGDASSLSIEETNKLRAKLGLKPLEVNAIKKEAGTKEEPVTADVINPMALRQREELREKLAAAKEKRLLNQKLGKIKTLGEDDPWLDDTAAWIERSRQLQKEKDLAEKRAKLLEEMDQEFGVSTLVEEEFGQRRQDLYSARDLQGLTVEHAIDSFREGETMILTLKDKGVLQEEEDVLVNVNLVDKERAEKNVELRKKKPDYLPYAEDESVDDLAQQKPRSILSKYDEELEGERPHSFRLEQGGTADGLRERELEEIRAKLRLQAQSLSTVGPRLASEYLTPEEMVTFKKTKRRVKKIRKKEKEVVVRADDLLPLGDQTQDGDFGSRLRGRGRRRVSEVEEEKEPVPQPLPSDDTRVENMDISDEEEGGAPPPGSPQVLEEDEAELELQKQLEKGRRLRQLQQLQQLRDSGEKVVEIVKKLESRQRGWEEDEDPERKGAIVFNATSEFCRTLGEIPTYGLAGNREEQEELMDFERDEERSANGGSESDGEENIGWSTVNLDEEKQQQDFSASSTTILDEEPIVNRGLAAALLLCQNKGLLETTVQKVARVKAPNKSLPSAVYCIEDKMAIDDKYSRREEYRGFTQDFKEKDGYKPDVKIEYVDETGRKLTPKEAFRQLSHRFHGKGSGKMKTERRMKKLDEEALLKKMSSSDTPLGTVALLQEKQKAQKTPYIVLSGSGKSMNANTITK
UniProt O60427: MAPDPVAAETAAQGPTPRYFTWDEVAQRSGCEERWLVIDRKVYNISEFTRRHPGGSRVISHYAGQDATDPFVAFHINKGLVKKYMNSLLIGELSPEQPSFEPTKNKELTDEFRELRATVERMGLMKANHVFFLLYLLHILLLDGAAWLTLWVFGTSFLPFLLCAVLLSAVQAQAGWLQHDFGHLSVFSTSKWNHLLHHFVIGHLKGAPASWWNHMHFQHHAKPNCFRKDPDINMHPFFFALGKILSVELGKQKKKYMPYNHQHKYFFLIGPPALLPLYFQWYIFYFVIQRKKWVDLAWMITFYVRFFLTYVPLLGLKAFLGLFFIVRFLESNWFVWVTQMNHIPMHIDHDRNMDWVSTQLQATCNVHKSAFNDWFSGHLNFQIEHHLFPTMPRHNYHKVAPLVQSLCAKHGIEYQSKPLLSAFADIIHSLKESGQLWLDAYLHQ
UniProt O14545: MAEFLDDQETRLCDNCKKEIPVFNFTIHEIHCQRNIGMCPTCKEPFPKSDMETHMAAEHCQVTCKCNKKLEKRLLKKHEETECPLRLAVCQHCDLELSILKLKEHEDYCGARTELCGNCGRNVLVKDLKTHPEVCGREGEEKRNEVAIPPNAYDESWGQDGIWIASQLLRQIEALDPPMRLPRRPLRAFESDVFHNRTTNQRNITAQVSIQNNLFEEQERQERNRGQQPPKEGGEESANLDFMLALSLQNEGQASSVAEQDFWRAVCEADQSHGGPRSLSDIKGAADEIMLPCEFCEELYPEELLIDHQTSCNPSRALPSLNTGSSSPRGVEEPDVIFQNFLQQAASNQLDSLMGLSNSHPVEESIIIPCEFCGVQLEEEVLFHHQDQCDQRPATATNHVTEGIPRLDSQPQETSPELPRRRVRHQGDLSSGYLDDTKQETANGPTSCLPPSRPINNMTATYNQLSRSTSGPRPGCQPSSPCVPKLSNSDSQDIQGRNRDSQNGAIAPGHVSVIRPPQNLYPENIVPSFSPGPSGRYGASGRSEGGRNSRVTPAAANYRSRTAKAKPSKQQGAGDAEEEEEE
UniProt O14773: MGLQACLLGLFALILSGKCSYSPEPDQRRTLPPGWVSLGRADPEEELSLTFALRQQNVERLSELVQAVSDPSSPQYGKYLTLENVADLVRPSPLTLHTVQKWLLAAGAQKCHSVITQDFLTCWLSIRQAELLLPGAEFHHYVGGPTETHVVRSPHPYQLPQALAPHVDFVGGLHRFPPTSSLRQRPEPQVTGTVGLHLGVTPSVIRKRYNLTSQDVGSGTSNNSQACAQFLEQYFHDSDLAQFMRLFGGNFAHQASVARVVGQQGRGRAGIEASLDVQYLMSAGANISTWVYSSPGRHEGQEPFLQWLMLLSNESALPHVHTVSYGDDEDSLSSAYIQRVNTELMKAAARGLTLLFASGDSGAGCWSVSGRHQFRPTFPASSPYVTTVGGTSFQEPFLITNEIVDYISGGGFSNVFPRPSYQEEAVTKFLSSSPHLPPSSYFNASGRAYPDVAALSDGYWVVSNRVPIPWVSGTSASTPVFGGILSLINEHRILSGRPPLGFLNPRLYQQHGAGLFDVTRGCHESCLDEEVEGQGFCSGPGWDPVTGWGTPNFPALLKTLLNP
UniProt O14735: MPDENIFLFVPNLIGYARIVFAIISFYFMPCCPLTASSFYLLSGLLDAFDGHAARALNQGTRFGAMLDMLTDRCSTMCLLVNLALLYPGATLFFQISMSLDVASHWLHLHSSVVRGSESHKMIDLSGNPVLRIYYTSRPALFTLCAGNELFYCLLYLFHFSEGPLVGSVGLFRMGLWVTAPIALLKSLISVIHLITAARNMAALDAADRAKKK
UniProt O15305: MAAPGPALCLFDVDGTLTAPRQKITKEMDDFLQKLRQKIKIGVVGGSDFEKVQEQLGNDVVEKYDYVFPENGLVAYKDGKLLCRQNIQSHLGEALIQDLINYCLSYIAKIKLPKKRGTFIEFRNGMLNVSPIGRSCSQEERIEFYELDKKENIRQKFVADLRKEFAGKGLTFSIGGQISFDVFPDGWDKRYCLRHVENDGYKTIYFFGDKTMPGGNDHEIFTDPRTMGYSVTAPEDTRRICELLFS
UniProt O00170: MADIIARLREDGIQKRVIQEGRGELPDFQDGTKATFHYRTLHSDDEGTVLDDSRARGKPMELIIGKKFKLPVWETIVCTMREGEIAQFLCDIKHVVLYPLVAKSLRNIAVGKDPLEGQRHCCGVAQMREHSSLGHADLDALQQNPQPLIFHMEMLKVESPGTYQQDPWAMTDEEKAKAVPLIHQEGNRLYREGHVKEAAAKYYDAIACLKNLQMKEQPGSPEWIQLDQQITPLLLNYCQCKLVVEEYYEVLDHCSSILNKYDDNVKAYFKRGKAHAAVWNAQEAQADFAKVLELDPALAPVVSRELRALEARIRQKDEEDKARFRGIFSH
UniProt O43765: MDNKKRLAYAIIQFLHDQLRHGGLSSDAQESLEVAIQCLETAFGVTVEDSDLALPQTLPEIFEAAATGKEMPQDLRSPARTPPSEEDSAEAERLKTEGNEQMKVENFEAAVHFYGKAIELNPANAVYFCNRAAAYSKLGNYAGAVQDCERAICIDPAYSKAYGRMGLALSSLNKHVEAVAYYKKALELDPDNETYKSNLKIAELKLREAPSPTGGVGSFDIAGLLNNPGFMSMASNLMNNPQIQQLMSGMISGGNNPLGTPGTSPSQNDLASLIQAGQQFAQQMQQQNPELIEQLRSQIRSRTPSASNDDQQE
UniProt O00422: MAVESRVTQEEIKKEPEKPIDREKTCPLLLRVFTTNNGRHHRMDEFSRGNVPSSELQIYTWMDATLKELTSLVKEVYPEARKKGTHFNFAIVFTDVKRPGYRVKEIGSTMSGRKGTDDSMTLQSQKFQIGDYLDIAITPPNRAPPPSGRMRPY
UniProt O14737: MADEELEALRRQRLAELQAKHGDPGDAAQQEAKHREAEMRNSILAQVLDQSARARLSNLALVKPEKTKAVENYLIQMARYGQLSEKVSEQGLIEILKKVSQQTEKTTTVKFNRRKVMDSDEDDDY
UniProt O00459, whole entry: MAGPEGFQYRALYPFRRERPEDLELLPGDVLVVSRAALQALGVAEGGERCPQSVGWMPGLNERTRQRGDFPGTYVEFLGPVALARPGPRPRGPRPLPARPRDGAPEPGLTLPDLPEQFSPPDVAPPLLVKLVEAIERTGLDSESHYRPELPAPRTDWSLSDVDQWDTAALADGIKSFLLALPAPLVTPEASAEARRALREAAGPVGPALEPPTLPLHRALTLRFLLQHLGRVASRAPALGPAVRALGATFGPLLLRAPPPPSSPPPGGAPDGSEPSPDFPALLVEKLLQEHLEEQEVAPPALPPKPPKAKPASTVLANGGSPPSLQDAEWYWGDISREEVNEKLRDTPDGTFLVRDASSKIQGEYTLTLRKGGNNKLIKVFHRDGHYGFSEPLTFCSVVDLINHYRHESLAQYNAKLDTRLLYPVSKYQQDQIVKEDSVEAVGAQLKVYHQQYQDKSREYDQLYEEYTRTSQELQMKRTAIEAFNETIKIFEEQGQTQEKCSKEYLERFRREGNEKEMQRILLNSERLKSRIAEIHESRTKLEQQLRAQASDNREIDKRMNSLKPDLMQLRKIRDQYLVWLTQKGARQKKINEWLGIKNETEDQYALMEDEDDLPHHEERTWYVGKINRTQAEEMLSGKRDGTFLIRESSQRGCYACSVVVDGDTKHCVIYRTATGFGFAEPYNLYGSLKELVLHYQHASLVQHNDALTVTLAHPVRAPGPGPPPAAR
UniProt O00425, whole entry: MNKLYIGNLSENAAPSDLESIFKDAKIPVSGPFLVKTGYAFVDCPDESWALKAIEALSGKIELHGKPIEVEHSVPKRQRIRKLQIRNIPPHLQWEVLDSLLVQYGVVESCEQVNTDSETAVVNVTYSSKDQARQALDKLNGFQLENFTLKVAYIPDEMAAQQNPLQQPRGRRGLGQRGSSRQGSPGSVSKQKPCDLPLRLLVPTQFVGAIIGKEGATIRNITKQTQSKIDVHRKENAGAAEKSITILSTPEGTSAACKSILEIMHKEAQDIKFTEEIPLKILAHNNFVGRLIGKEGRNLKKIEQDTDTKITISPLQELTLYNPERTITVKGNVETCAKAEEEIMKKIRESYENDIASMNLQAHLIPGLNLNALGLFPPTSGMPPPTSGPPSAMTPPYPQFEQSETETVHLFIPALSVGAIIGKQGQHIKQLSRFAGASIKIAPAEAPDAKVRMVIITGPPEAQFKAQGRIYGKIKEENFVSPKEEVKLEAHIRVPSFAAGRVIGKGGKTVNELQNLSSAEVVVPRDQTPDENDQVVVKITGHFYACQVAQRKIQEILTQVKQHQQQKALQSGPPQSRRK
UniProt O15541: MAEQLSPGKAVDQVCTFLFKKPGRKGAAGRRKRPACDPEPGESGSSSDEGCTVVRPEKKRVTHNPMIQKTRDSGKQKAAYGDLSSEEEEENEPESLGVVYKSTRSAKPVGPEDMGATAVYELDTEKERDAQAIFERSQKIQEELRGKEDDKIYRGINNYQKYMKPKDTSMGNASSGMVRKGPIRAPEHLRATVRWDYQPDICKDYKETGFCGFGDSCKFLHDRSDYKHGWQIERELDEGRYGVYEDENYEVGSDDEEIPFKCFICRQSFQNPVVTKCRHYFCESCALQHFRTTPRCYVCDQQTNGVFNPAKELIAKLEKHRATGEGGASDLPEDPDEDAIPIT
UniProt O43502: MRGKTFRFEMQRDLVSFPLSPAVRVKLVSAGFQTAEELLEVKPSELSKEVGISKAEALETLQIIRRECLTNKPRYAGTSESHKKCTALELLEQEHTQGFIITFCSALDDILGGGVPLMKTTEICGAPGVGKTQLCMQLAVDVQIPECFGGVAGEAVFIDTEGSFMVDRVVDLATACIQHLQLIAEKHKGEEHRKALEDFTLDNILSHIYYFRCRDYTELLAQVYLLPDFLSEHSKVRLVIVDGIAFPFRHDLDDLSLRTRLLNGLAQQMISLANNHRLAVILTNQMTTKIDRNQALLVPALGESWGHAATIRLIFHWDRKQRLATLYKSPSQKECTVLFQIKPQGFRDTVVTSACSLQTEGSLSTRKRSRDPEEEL

Target	NP40-soluble protein abundance (concentration: 1mM)	NP40-soluble protein abundance (concentration: 2mM)	NP40-soluble protein abundance (concentration: 4mM)	NP40-soluble protein abundance (concentration: 6mM)	NP40-soluble protein abundance (concentration: 8mM)	NP40-soluble protein abundance (concentration: 10mM)
SH3BP5 (UniProt O60239)	0.971 ± 0.025	0.918 ± 0.053	0.954 ± 0.049	0.974 ± 0.02	0.926 ± 0.043	0.885 ± 0.03
SCO2 (UniProt O43819)	0.984 ± 0.064	0.966 ± 0.02	0.979 ± 0.021	0.96 ± 0.033	0.992 ± 0.061	0.983 ± 0.036
UniProt O15446 and related entries	0.888 ± 0.05	0.951 ± 0.012	1.01 ± 0.095	1.04 ± 0.039	1.04 ± 0.11	1.02 ± 0.05
SART1 (UniProt O43290)	1.2 ± 0.071	1.3 ± 0.076	1.36 ± 0.06	1.56 ± 0.11	1.53 ± 0.026	1.61 ± 0.058
FADS1 (UniProt O60427)	1.01 ± 0.075	1.06 ± 0.023	1.01 ± 0.033	0.956 ± 0.042	1.042 ± 0.01	1.02 ± 0.036
TRAFD1 (UniProt O14545)	0.931 ± 0.079	1.02 ± 0.13	1.01 ± 0.083	0.993 ± 0.11	1.02 ± 0.1	0.988 ± 0.087
UniProt O14773 and related entries	0.932 ± 0.033	0.939 ± 0.019	0.902 ± 0.029	0.892 ± 0.048	0.9 ± 0.037	0.877 ± 0.029
MAFG (UniProt O15525)	0.948 ± 0.069	1 ± 0.034	1.01 ± 0.035	1.06 ± 0.073	0.98 ± 0.02	0.963 ± 0.058
RNF13 (UniProt O43567)	0.94 ± 0.055	0.99 ± 0.029	0.978 ± 0.039	0.982 ± 0.078	0.919 ± 0.012	0.948 ± 0.031
UniProt O14924 and related entries	1.11 ± 0.42	1.02 ± 0.047	0.929 ± 0.078	1.16 ± 0.35	1.28 ± 0.44	1.23 ± 0.44
UniProt O43251-6|O43251-8	1.08 ± 0.094	1.08 ± 0.046	1.13 ± 0.12	1.06 ± 0.2	0.999 ± 0.11	1.18 ± 0.014
O60344 and related entries (UniProt P0DPD6)	0.949 ± 0.06	0.96 ± 0.11	1.11 ± 0.17	1.05 ± 0.2	1.02 ± 0.097	1.01 ± 0.14
AKAP10 (UniProt O43572)	1.04 ± 0.053	1.05 ± 0.059	1.07 ± 0.082	0.998 ± 0.14	0.987 ± 0.087	1.07 ± 0.039
UniProt O00429 and related entries	0.945 ± 0.038	0.938 ± 0.019	0.9338 ± 0.0041	0.9 ± 0.04	0.934 ± 0.014	0.928 ± 0.019
STXBP3 (UniProt O00186)	1.02 ± 0.061	1.02 ± 0.077	0.997 ± 0.075	0.973 ± 0.1	1.02 ± 0.064	0.988 ± 0.077
UniProt O14735 and related entries	0.835 ± 0.081	0.923 ± 0.16	0.927 ± 0.12	0.784 ± 0.087	0.921 ± 0.06	1.03 ± 0.055
PMM2 (UniProt O15305)	1.01 ± 0.039	0.971 ± 0.043	0.972 ± 0.034	0.979 ± 0.071	0.992 ± 0.058	0.972 ± 0.058

Quoted from the listing:
NP40-soluble protein abundance (concentration: 1mM), SCO2 (UniProt O43819) reads 0.984 ± 0.064
NP40-soluble protein abundance (concentration: 10mM), UniProt O14735 and related entries reads 1.03 ± 0.055

Next results

Target	NP40-soluble protein abundance (concentration: 1mM)	NP40-soluble protein abundance (concentration: 2mM)	NP40-soluble protein abundance (concentration: 4mM)	NP40-soluble protein abundance (concentration: 6mM)	NP40-soluble protein abundance (concentration: 8mM)	NP40-soluble protein abundance (concentration: 10mM)
AIP (UniProt O00170)	0.961 ± 0.052	0.959 ± 0.033	0.94 ± 0.063	0.94 ± 0.073	0.955 ± 0.038	0.933 ± 0.04
SGTA (UniProt O43765)	0.887 ± 0.14	0.891 ± 0.11	0.847 ± 0.072	0.909 ± 0.13	0.846 ± 0.047	0.748 ± 0.13
UniProt O00487	0.979 ± 0.066	0.887 ± 0.023	0.874 ± 0.036	0.891 ± 0.064	0.911 ± 0.065	0.872 ± 0.039
UniProt O00422 and related entries	1.21 ± 0.2	1.13 ± 0.26	1.06 ± 0.25	1.07 ± 0.32	0.829 ± 0.22	1.05 ± 0.24
UniProt O14686 and related entries	0.977 ± 0.03	0.966 ± 0.031	0.971 ± 0.034	1 ± 0.049	0.949 ± 0.028	0.975 ± 0.013
IPO8 (UniProt O15397)	1.01 ± 0.016	0.991 ± 0.019	0.972 ± 0.025	0.981 ± 0.02	0.9689 ± 0.0088	0.962 ± 0.015
M0R2Z9 and related entries (UniProt Q8IX01)	1.11 ± 0.038	1.09 ± 0.1	1.08 ± 0.099	1.13 ± 0.16	1.12 ± 0.13	1.15 ± 0.13
TIMM23 (UniProt O14925)	0.913 ± 0.047	0.943 ± 0.02	0.943 ± 0.016	0.883 ± 0.086	0.917 ± 0.015	0.931 ± 0.019
UniProt O00716-2	0.975 ± 0.049	1.02 ± 0.023	0.988 ± 0.076	1.06 ± 0.02	0.971 ± 0.086	1.03 ± 0.072
PDCD5 (UniProt O14737)	0.888 ± 0.07	0.905 ± 0.073	0.936 ± 0.052	1.05 ± 0.17	0.904 ± 0.014	0.886 ± 0.082
PIK3R2 (UniProt O00459)	1.12 ± 0.24	1.08 ± 0.2	0.996 ± 0.12	1.15 ± 0.11	0.943 ± 0.16	0.99 ± 0.041
UniProt O15040 and related entries	0.947 ± 0.04	0.955 ± 0.062	0.975 ± 0.1	0.978 ± 0.11	0.943 ± 0.12	1.03 ± 0.066
RAD21 (UniProt O60216)	0.966 ± 0.046	0.982 ± 0.049	0.965 ± 0.037	1 ± 0.056	0.953 ± 0.032	0.978 ± 0.021
IGF2BP3 (UniProt O00425)	0.97 ± 0.034	0.959 ± 0.031	0.916 ± 0.029	0.967 ± 0.044	0.916 ± 0.031	0.916 ± 0.036
RNF113A (UniProt O15541)	1.04 ± 0.089	1.04 ± 0.071	1.03 ± 0.067	1.03 ± 0.081	0.968 ± 0.074	1 ± 0.089
RAD51C (UniProt O43502)	0.999 ± 0.099	1.01 ± 0.081	1.12 ± 0.061	1.05 ± 0.019	1.09 ± 0.025	0.973 ± 0.043
UniProt O60333-2|O60333-3	0.961 ± 0.022	0.951 ± 0.037	0.91 ± 0.063	0.915 ± 0.052	0.935 ± 0.07	0.91 ± 0.054

— the supplement of paper PMC6411743
